Results published in doi:10.1101/354316.
Results are given in words; binding and its absence hold for the method and conditions named. Binding seen in cells or lysates may run through a third protein. Here binding means that the protein was enriched with, or labelled near, the bait; the list need not be complete. Values belong to the molecule of their own block, whether it stands above or below them.

The chains behind the UniProt entries cited, without tags or fusion partners.
UniProt Q9C0H5: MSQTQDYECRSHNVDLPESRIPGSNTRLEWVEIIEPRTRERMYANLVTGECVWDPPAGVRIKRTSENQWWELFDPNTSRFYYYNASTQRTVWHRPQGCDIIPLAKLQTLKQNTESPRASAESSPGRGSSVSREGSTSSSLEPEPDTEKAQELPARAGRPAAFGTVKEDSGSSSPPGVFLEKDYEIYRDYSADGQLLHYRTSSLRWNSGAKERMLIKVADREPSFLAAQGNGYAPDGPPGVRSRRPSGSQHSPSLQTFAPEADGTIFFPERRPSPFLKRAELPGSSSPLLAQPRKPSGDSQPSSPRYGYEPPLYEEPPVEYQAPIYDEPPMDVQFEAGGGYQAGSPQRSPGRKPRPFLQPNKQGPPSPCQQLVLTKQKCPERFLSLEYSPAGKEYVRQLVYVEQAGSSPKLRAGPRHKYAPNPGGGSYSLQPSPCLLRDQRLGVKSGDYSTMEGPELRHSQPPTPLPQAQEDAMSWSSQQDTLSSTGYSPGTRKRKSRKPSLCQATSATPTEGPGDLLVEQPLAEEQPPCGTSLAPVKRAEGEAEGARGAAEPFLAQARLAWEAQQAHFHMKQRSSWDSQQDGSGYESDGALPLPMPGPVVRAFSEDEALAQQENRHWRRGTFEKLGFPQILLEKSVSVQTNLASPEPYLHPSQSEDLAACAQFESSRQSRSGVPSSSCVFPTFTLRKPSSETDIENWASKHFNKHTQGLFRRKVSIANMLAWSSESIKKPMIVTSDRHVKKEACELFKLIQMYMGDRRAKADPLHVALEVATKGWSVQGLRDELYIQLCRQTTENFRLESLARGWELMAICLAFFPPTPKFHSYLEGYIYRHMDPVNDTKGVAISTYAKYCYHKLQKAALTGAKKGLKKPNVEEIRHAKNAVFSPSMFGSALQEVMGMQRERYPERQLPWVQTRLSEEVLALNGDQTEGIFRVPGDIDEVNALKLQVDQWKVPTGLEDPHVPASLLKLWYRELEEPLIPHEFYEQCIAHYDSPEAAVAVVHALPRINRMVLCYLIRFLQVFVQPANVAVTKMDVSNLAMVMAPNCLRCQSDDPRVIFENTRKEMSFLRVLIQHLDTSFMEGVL
UniProt Q9H792: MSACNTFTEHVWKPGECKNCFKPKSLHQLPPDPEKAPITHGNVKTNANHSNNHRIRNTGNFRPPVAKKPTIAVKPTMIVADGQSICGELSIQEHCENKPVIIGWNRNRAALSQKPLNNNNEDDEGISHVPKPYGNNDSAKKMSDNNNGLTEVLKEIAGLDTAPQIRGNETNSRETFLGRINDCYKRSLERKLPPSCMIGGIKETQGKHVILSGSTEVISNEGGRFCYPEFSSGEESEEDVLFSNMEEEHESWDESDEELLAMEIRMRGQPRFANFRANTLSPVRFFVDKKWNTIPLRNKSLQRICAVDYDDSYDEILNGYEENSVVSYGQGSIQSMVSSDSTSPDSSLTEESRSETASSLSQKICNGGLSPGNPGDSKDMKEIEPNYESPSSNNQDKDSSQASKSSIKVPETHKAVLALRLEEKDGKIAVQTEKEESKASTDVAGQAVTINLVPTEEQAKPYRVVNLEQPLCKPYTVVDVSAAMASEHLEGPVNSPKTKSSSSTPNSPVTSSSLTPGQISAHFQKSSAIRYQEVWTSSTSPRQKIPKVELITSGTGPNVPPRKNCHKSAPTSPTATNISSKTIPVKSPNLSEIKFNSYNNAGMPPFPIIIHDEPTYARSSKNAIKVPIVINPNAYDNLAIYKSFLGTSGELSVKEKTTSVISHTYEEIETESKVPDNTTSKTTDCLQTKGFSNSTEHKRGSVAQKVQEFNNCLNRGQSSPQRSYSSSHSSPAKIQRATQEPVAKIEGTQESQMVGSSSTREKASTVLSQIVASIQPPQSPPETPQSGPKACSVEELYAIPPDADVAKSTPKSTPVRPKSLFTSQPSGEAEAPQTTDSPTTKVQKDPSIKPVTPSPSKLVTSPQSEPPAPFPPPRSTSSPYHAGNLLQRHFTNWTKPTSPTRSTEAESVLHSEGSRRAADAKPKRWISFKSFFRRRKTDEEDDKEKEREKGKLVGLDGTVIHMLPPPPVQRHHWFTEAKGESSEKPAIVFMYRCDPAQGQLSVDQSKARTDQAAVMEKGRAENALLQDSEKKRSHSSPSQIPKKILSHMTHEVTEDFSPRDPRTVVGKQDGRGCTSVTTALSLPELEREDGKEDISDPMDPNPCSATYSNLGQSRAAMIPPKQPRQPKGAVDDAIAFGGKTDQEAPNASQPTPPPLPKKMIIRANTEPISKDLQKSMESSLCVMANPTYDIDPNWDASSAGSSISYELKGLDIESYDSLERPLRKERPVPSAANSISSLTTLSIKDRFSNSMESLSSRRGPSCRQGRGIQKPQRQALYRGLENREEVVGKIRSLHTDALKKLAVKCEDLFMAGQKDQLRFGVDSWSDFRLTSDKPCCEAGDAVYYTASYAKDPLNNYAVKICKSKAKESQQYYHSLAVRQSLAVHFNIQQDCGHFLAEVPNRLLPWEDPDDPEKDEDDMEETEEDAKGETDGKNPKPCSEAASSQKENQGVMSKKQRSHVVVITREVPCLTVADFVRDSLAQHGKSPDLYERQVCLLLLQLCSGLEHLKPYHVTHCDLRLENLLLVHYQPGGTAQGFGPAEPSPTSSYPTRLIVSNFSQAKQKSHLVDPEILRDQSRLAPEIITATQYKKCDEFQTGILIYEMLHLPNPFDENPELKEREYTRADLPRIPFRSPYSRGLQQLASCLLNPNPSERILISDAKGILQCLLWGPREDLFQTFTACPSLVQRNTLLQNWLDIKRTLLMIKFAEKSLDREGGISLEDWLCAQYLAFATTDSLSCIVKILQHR
UniProt O43150: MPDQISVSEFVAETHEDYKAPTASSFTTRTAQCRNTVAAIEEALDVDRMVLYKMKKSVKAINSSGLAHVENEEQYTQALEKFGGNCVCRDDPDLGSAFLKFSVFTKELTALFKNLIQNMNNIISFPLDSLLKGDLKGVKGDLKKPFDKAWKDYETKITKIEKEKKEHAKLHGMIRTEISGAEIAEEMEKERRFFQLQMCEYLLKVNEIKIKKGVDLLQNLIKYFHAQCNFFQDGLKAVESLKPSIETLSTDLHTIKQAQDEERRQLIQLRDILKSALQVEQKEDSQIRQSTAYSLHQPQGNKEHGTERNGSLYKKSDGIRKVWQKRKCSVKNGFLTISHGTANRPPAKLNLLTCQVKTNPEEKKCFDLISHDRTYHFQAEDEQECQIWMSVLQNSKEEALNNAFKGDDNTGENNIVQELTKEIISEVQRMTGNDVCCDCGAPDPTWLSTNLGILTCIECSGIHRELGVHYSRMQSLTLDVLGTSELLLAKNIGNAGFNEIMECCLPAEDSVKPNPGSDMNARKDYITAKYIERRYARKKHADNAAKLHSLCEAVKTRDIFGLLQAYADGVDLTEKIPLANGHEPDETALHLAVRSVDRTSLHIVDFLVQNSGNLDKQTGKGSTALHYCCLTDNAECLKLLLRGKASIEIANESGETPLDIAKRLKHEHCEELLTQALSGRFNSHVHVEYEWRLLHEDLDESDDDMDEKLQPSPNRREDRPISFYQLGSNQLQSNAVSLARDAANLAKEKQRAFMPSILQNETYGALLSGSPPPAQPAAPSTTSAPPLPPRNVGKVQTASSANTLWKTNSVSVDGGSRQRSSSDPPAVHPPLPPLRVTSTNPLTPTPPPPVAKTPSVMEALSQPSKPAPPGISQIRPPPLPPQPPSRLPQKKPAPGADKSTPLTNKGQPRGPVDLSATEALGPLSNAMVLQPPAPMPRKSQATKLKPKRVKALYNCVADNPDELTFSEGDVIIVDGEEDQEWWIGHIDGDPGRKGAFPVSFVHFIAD

What was measured:
Assay in all cases: affinity purification with mass spectrometry
[1] = biological target: ARHGAP39 (bait of the interactome screen) (human) (UniProt Q9C0H5)
[2] = biological target: T1, ARHGAP12 (not stated (library cDNAs: human, mouse, rat or chimpanzee; Table S1)) (UniProt Q8IWW6)
T1 sequence: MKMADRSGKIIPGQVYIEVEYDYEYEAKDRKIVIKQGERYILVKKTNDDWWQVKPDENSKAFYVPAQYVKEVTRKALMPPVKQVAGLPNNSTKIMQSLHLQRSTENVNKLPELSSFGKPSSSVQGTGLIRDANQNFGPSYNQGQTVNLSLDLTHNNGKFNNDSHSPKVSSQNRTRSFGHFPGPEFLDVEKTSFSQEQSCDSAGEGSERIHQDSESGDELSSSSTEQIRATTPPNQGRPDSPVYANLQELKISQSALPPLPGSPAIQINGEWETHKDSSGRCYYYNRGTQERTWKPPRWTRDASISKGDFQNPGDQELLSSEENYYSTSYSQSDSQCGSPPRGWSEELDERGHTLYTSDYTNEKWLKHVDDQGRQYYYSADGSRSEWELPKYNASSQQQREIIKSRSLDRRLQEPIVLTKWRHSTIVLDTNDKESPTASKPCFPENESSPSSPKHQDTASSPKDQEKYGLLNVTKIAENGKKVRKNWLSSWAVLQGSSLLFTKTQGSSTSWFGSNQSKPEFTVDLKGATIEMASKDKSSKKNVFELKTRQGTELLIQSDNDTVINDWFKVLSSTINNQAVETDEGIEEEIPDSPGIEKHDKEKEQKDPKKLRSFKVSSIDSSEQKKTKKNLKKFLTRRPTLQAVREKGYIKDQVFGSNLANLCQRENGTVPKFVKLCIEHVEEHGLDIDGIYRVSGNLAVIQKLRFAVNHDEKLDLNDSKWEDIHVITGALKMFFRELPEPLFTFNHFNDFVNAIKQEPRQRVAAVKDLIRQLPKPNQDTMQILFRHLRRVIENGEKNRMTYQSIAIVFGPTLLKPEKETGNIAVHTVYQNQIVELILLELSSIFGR

[3] = biological target: T2, ARHGEF10L (not stated (library cDNAs: human, mouse, rat or chimpanzee; Table S1)) (UniProt Q9HCE6)
T2 sequence: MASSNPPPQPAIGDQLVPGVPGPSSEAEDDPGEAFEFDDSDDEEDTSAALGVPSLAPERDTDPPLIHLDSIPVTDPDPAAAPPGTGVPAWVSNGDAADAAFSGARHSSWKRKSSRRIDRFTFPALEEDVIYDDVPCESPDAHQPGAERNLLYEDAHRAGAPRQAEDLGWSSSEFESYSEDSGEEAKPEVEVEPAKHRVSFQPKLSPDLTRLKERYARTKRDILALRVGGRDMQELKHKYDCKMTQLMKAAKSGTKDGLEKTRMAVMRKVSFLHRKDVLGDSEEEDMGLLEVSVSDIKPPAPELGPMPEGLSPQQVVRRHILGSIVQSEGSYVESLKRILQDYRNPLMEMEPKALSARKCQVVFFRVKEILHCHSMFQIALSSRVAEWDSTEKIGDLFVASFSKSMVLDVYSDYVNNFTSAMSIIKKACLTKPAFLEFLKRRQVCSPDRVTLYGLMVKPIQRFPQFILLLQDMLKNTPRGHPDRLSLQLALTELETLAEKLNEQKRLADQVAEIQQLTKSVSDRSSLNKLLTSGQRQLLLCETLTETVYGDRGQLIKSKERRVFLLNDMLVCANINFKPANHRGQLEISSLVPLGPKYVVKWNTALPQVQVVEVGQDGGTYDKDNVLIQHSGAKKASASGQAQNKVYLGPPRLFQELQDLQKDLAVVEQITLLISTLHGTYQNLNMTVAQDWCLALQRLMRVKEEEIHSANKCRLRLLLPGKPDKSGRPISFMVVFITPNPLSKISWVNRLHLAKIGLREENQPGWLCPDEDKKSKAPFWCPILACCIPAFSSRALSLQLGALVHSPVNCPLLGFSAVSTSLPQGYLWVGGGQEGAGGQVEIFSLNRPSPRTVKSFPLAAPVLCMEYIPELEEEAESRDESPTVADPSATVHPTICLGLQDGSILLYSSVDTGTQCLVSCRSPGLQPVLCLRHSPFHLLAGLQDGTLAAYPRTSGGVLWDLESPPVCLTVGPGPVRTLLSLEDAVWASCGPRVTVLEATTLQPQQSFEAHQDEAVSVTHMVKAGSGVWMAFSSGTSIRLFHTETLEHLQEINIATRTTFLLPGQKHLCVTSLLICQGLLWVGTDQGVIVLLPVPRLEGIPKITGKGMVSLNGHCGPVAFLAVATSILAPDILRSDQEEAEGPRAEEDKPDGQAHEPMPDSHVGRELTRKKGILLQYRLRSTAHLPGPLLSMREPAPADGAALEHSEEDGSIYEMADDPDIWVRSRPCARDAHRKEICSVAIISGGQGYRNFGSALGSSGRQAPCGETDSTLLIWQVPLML

- binding [1]: binds
Molecule: PEAK1 (prey of the interactome screen) (from UniProt Q9H792 1-1746)

- binding [2]: binds
Molecule: ASAP2 (from UniProt O43150 1-1006)

- binding [3]: binds
B1: ARHGEF10 (protein, UniProt O15013 1-1369)
chain: MRPPGFLSRAPSLNRAERGIWSCSMDQREPLPPAPAENEMKYDTNNNEEEEGEQFDFDSGDEIPEADRQAPSAPETGGAGASEAPAPTGGEDGAGAETTPVAEPTKLVLPMKVNPYSVIDITPFQEDQPPTPVPSAEEENVGLHVPCGYLVPVPCGYAVPSNLPLLLPAYSSPVIICATSLDEEAETPEVTEDRQPNSLSSEEPPTSEDQVGREDSALARWAADPANTAWMENPEEAIYDDVPRENSDSEPDEMIYDDVENGDEGGNSSLEYGWSSSEFESYEEQSDSECKNGIPRSFLRSNHKKQLSHDLTRLKEHYEKKMRDLMASTVGVVEIQQLRQKHELKMQKLVKAAKDGTKDGLERTRAAVKRGRSFIRTKSLIAQDHRSSLEEEQNLFIDVDCKHPEAILTPMPEGLSQQQVVRRYILGSVVDSEKNYVDALKRILEQYEKPLSEMEPKVLSERKLKTVFYRVKEILQCHSLFQIALASRVSEWDSVEMIGDVFVASFSKSMVLDAYSEYVNNFSTAVAVLKKTCATKPAFLEFLKQEQEASPDRTTLYSLMMKPIQRFPQFILLLQDMLKNTSKGHPDRLPLQMALTELETLAEKLNERKRDADQRCEVKQIAKAINERYLNKLLSSGSRYLIRSDDMIETVYNDRGEIVKTKERRVFMLNDVLMCATVSSRPSHDSRVMSSQRYLLKWSVPLGHVDAIEYGSSAGTGEHSRHLAVHPPESLAVVANAKPNKVYMGPGQLYQDLQNLLHDLNVIGQITQLIGNLKGNYQNLNQSVAHDWTSGLQRLILKKEDEIRAADCCRIQLQLPGKQDKSGRPTFFTAVFNTFTPAIKESWVNSLQMAKLALEEENHMGWFCVEDDGNHIKKEKHPLLVGHMPVMVAKQQEFKIECAAYNPEPYLNNESQPDSFSTAHGFLWIGSCTHQMGQIAIVSFQNSTPKVIECFNVESRILCMLYVPVEEKRREPGAPPDPETPAVRASDVPTICVGTEEGSISIYKSSQGSKKVRLQHFFTPEKSTVMSLACTSQSLYAGLVNGAVASYARAPDGSWDSEPQKVIKLGVLPVRSLLMMEDTLWAASGGQVFIISVETHAVEGQLEAHQEEGMVISHMAVSGVGIWIAFTSGSTLRLFHTETLKHLQDINIATPVHNMLPGHQRLSVTSLLVCHGLLMVGTSLGVLVALPVPRLQGIPKVTGRGMVSYHAHNSPVKFIVLATALHEKDKDKSRDSLAPGPEPQDEDQKDALPSGGAGSSLSQGDPDAAIWLGDSLGSMTQKSDLSSSSGSLSLSHGSSSLEHRSEDSTIYDLLKDPVSLRSKARRAKKAKASSALVVCGGQGHRRVHRKARQPHQEELAPTVMVWQIPLLNI
